Values of other authors, collected in publication PMC6450621, “Changes of drug pharmacokinetics mediated by downregulation of kidney organic cation transporters Mate1 and Oct2 in a rat model of hyperuricemia” (PLoS ONE, 2019).

Conditions: cephalexin; used for control and hyperuricemic rats; cited from earlier work

CC1=C(C(=O)O)N2C(=O)[C@@H](NC(=O)[C@H](N)c3ccccc3)[C@H]2SC1 [Cephalexin, cephalexin]
fu: 0.82 [28]
